Measured values reported in the supplement of paper PMC10849652.
The list shows a part of the results.

Amino acid sequences for entries named in this document (tags omitted). A change or cut given only in a name is not applied to a line headed by its entry.
UniProt Q12846: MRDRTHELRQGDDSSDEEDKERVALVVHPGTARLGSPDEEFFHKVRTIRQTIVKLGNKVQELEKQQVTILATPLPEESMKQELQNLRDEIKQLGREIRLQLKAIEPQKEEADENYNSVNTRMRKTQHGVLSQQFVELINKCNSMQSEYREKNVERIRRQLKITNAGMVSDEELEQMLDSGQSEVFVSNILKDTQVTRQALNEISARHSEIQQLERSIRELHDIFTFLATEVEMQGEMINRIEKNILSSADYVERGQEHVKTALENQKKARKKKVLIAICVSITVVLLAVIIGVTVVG
UniProt Q9UH65: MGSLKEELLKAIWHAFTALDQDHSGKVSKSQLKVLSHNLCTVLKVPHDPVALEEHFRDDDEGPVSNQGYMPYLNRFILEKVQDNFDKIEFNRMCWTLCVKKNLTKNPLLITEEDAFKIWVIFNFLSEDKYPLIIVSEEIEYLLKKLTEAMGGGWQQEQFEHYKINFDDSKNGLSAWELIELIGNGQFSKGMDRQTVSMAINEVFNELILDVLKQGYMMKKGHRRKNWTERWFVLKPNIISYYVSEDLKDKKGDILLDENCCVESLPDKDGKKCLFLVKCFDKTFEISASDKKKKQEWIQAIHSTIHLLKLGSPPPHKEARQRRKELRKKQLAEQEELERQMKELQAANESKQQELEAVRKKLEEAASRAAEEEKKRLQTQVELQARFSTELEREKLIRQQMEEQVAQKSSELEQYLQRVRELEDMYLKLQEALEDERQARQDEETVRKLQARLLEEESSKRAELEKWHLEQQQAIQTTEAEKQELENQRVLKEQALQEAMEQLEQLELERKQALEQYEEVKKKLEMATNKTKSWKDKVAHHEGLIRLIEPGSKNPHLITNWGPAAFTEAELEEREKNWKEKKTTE
UniProt P55854, whole entry, looked up: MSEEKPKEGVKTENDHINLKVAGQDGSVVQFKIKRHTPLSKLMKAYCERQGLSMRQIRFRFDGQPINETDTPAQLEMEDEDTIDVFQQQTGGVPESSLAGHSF
UniProt Q15545, whole entry, looked up: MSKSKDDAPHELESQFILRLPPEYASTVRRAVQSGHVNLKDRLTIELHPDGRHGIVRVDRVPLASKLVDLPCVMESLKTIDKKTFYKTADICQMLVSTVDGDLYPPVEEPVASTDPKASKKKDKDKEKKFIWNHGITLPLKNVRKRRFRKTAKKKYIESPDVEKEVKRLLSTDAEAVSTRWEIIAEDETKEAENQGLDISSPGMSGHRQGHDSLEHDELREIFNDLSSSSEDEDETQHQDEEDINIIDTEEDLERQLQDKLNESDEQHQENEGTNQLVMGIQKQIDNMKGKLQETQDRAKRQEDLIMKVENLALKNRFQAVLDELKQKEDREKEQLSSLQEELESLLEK
UniProt Q5VSL9: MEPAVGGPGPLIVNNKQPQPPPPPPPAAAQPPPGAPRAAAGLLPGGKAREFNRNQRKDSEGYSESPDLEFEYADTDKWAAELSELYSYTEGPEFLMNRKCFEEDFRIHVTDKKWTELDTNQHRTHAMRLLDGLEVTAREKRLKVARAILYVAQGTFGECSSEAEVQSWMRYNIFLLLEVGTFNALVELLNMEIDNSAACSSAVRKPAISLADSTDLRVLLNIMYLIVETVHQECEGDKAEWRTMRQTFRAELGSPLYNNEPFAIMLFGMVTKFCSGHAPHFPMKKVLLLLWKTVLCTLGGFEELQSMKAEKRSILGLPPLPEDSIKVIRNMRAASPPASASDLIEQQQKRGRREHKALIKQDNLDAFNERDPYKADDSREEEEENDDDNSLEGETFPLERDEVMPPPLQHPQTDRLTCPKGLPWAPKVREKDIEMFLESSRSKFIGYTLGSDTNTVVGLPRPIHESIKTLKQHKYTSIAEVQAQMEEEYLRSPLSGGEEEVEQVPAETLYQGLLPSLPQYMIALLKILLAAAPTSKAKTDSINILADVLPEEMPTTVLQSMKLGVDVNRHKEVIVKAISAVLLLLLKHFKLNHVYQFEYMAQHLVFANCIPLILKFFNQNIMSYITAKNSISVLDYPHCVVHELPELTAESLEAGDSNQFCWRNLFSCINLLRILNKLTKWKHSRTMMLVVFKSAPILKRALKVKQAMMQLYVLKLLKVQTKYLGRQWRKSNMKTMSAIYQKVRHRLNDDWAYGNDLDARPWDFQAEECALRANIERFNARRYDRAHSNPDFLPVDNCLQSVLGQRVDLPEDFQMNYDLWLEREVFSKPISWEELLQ
UniProt O43752: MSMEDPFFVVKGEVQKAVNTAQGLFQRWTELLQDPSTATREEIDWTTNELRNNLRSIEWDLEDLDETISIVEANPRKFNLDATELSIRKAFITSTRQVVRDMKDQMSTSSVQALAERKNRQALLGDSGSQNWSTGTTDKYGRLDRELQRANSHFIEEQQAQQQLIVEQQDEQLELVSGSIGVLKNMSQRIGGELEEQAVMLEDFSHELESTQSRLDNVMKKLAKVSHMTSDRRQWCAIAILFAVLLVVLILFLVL
UniProt Q9UI15: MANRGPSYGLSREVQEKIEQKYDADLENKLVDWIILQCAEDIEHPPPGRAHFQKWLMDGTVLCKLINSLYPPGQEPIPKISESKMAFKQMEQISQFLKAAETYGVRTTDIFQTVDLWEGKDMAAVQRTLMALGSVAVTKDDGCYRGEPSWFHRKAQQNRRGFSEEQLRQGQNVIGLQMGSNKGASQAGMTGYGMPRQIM
UniProt P61764, whole entry, looked up: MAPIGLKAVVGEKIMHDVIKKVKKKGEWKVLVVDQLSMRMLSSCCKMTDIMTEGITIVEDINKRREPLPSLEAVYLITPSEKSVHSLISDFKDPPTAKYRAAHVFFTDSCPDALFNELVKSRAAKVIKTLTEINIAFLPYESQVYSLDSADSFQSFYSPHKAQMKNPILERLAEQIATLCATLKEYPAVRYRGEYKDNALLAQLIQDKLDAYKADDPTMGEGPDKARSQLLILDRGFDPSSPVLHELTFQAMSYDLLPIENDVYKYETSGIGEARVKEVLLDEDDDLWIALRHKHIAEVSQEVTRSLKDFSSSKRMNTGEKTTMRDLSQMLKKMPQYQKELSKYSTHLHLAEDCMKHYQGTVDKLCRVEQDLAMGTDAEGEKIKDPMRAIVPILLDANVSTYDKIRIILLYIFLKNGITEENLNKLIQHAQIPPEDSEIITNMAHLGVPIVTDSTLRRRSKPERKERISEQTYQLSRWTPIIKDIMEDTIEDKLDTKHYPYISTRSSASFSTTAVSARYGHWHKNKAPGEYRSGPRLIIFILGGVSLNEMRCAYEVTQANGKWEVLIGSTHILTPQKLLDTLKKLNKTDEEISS
UniProt Q6P1N9: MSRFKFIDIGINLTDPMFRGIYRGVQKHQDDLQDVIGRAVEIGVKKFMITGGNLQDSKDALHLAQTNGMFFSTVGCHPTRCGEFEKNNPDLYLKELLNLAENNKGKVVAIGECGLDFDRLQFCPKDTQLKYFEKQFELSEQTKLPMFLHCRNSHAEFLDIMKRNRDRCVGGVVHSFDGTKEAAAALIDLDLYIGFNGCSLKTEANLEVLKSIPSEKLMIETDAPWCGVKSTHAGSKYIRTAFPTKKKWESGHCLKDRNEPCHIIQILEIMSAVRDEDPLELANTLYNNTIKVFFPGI
UniProt Q1ZZU3: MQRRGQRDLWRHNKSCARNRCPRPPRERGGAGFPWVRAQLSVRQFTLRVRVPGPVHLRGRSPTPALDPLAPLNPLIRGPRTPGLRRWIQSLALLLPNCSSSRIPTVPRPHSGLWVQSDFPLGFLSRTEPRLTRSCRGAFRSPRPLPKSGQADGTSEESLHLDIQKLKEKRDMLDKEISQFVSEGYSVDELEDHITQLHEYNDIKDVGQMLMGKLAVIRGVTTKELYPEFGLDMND
UniProt O15533, whole entry, looked up: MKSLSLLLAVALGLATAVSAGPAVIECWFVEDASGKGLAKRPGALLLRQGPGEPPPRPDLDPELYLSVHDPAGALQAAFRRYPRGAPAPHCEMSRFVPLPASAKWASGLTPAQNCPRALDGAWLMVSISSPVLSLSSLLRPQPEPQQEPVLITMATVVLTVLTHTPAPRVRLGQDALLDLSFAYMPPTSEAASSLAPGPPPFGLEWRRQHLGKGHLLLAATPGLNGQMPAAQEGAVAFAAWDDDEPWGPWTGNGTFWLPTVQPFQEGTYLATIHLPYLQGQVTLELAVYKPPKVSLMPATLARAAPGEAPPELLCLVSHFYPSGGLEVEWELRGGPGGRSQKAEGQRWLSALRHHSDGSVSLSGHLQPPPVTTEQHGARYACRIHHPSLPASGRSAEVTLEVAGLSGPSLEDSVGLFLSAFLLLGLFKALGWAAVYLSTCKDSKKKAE
UniProt Q7RTN6: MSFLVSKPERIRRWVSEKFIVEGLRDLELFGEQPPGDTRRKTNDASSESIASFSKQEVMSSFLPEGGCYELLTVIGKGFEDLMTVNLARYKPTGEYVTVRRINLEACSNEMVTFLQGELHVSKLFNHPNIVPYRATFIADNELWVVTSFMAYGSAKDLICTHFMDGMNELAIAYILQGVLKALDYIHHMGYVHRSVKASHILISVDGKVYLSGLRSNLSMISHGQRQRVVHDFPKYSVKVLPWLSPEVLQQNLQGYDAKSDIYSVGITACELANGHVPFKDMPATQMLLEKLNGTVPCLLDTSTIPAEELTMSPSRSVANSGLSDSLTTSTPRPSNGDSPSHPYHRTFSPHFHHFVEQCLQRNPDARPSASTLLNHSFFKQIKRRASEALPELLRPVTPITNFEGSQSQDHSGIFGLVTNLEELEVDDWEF
UniProt Q9Y3F4: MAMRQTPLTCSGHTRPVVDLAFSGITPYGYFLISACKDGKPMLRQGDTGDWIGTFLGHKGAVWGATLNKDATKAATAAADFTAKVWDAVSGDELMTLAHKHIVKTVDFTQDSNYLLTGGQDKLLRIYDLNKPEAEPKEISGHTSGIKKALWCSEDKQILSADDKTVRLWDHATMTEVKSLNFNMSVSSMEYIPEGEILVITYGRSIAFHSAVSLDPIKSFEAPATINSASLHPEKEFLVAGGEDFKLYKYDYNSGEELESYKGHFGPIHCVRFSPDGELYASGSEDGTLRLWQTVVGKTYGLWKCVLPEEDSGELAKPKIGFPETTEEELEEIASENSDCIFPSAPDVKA
UniProt Q96I99: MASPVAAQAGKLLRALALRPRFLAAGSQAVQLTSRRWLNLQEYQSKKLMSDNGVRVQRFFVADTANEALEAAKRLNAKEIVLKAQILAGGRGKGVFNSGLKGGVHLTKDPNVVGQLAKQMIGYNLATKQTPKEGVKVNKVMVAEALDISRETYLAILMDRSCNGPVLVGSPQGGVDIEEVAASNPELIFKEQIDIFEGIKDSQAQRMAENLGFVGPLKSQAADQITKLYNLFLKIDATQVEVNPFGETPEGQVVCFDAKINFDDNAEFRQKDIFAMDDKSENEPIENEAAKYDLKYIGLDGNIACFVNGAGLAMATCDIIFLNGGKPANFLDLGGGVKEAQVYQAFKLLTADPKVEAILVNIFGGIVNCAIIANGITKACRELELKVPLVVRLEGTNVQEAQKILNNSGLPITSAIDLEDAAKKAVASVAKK
UniProt Q9UNK0: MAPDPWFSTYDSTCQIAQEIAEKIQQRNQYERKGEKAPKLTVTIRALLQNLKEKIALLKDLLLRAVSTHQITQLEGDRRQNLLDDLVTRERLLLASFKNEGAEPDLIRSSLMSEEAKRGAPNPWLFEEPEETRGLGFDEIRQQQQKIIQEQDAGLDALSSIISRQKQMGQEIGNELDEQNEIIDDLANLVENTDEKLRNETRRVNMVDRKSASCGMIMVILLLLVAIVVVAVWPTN
UniProt Q7Z422: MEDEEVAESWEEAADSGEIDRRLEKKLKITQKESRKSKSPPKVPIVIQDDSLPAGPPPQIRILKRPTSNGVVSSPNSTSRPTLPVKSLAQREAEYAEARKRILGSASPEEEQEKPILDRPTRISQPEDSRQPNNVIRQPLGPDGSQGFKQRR
UniProt Q96SI9: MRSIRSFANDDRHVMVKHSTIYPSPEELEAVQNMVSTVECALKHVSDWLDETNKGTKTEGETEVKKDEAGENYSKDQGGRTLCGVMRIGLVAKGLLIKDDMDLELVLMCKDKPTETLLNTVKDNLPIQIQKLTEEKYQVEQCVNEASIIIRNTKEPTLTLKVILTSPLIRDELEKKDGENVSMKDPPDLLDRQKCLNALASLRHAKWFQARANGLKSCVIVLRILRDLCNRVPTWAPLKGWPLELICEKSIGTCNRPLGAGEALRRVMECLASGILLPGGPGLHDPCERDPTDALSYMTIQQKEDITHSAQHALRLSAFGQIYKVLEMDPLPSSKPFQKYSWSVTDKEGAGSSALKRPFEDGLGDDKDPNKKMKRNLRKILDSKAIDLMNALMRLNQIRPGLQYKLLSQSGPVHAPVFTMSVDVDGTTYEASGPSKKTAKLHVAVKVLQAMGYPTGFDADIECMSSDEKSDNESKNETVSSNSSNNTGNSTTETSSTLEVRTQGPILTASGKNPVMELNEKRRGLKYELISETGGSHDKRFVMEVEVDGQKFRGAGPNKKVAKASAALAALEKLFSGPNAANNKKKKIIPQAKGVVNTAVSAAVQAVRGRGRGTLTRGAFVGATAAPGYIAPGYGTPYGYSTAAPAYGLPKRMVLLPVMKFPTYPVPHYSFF
UniProt Q8NHG7: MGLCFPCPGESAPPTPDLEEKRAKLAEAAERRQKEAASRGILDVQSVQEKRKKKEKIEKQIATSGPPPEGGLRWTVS

How the values were obtained:
Assay in all cases: log2 fold change, soluble protein after heating vs DMSO (PISA); higher = thermal stabilisation; K562 cells, 10 uM, 30 min; active = over 0.2 and 3.5 SD of the protein, either way, in both replicates (recomputed)
[1] = compound: CS(=O)(=O)c1ccc(-c2cnc(N)c(C(=O)Nc3ccccc3)n2)cc1
Method in brief: (§1)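 K562 cells at 2×10^6 cells/mL were exposed to 10 μM compound for 30 min, then aliquots were heated for 3 min across 48°C-58°C, pooled, and extracted in PBS containing 0.5% NP-40 at 4°C. The supernatant after 21,000xg for 90 min was taken as soluble protein and measured by TMTpro 16plex LC-MS/MS with channel sums equalised. Thermal stability is reported relative to control samples, with values from duplicates. Fold changes are given on a log2 scale.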

crizotinib = compound: C[C@@H](Oc1cc(-c2cnn(C3CCNCC3)c2)cnc1N)c1c(Cl)ccc(F)c1Cl [crizotinib]
Method in brief: as §1

[2] = compound: C[C@@H]1COCCN1C2=NC(=NC(=C2)C3(CC3)S(=O)(=O)C)C4=C5C=CNC5=CC=C4
Method in brief: as §1

[3] = compound: C[C@H](C1=CC=C(C=C1)C(=O)NC2=C3C=CNC3=NC=C2)N
Method in brief: as §1

duvelisib = compound: C[C@H](Nc1ncnc2nc[nH]c12)c1cc2cccc(Cl)c2c(=O)n1-c1ccccc1 [duvelisib]
Method in brief: as §1

gandotinib = compound: Cc1cc(Nc2cc(CN3CCOCC3)c3nc(C)c(Cc4ccc(Cl)cc4F)n3n2)n[nH]1 [gandotinib]
Method in brief: as §1

tozasertib = compound: Cc1cc(Nc2cc(N3CCN(C)CC3)nc(Sc3ccc(NC(=O)C4CC4)cc3)n2)n[nH]1 [tozasertib]
Method in brief: as §1

[4] = compound: Cc1cc(SCc2sc(-c3ccc(C(F)(F)F)cc3)nc2C)ccc1OCC(=O)O
Method in brief: as §1

doramapimod = compound: Cc1ccc(-n2nc(C(C)(C)C)cc2NC(=O)Nc2ccc(OCCN3CCOCC3)c3ccccc23)cc1 [doramapimod]
Method in brief: as §1

ispinesib = compound: Cc1ccc(C(=O)N(CCCN)[C@@H](c2nc3cc(Cl)ccc3c(=O)n2Cc2ccccc2)C(C)C)cc1 [ispinesib]
Method in brief: as §1

Measured: log2 fold change

STX4 (UniProt Q12846)
inactive: [1] 0.067 | crizotinib 0.095 | [2] 0.01 | [3] -0.044 | duvelisib 0.068 | gandotinib -0.102 | tozasertib -0.017 | [4] 0.008 | doramapimod -0.035 | ispinesib 0.154

SWAP70 (UniProt Q9UH65)
inactive: [1] 0.014 | crizotinib -0.024 | [2] -0.014 | [3] -0.135 | duvelisib 0.036 | gandotinib -0.075 | tozasertib 0.008 | [4] -0.03 | doramapimod -0.009 | ispinesib 0.031

TACC3 (UniProt Q9Y6A5)
inactive: [1] 0 | crizotinib 0.084 | [2] 0.001 | [3] -0.042 | duvelisib 0.051 | gandotinib -0.047 | tozasertib 0.051 | [4] 0.004 | doramapimod -0.013 | ispinesib 0.033

SUMO3 isoform 2 (UniProt P55854)
inactive: [1] -0.1 | crizotinib -0.037 | [2] -0.106 | [3] 0.025 | duvelisib -0.096 | gandotinib 0.081 | tozasertib -0.081 | [4] -0.176 | doramapimod 0.036 | ispinesib -0.162

TAF7 (UniProt Q15545)
inactive: [1] -0.07 | crizotinib 0.009 | [2] -0.045 | [3] -0.049 | duvelisib -0.001 | gandotinib -0.022 | tozasertib -0.031 | [4] -0.013 | doramapimod 0.009 | ispinesib 0

SUB1 (UniProt P53999)
inactive: [1] 0.012 | crizotinib 0.01 | [2] 0.022 | [3] 0 | duvelisib 0.011 | gandotinib -0.006 | tozasertib -0.032 | [4] -0.051 | doramapimod 0.014 | ispinesib -0.015

STRIP1 (UniProt Q5VSL9)
inactive: [1] -0.076 | crizotinib 0.04 | [2] 0.055 | [3] 0.096 | duvelisib 0.023 | gandotinib -0.001 | tozasertib -0.01 | [4] 0.047 | doramapimod 0.106 | ispinesib 0.048

STX6 (UniProt O43752)
inactive: [1] 0.038 | crizotinib 0.024 | [2] -0.002 | [3] -0.049 | duvelisib 0.052 | gandotinib 0.078 | tozasertib -0.009 | [4] 0.003 | doramapimod 0.007 | ispinesib -0.056

TAGLN3 (UniProt Q9UI15)
inactive: [1] 0.084 | crizotinib 0.053 | [2] 0.126 | [3] 0.074 | duvelisib 0.184 | tozasertib 0.03 | [4] -0.2 | doramapimod 0.024

STXBP1 (UniProt P61764)
inactive: [1] 0.055 | crizotinib -0.329 | [2] 0.072 | [3] 0 | duvelisib 0.214 | gandotinib -0.174 | tozasertib 0.063 | [4] 0.318 | doramapimod 0.003 | ispinesib -0.121

TATDN1 (UniProt Q6P1N9)
inactive: [1] 0.048 | crizotinib -0.003 | [2] -0.115 | [3] -0.031 | duvelisib 0.02 | gandotinib 0.029 | tozasertib -0.061 | [4] -0.063 | doramapimod 0.042 | ispinesib 0.003

SUPT4H1 (UniProt P63272)
inactive: [1] 0.084 | crizotinib 0.147 | [2] 0.096 | [3] -0.233 | duvelisib 0.081 | gandotinib 0.051 | tozasertib 0.093 | [4] 0.08 | doramapimod -0.104 | ispinesib 0.176

SWI5 (UniProt Q1ZZU3)
inactive: [1] 0.087 | crizotinib 0.017 | [2] 0.092 | [3] -0.074 | duvelisib 0.234 | gandotinib -0.16 | [4] -0.12 | doramapimod 0.084

STRN3 (UniProt Q13033)
inactive: [1] 0.047 | crizotinib 0.015 | [2] 0.119 | [3] 0.001 | duvelisib -0.013 | gandotinib 0.043 | tozasertib 0.003 | [4] 0.022 | doramapimod -0.046 | ispinesib 0.018

TAPBP isoform 3 (UniProt O15533)
inactive: [1] -0.145 | crizotinib -0.171 | [2] -0.12 | [3] -0.117 | gandotinib 0.004 | tozasertib 0.059 | doramapimod -0.054 | ispinesib -0.067

TAL1 (UniProt P17542)
inactive: [1] 0 | crizotinib 0.016 | [2] 0.072 | [3] -0.082 | duvelisib 0.02 | gandotinib 0.018 | tozasertib 0.028 | [4] 0 | doramapimod -0.001 | ispinesib -0.054

STRADA (UniProt Q7RTN6)
inactive: [1] -0.007 | crizotinib -0.007 | [2] 0.069 | [3] -0.072 | duvelisib 0.033 | gandotinib -0.065 | tozasertib 0.022 | [4] -0.009 | doramapimod 0.012 | ispinesib 0.013

SYNJ1 (UniProt O43426)
inactive: [1] -0.039 | crizotinib 0.051 | [2] -0.014 | [3] -0.009 | duvelisib 0.095 | gandotinib -0.217 | tozasertib 0 | [4] -0.019 | doramapimod -0.038 | ispinesib -0.02

Two consecutive records already listed, quoted:
TAPBP isoform 3 (UniProt O15533)
inactive: [1] -0.145 | crizotinib -0.171 | [2] -0.12 | [3] -0.117 | gandotinib 0.004 | tozasertib 0.059 | doramapimod -0.054 | ispinesib -0.067

TAL1 (UniProt P17542)
inactive: [1] 0 | crizotinib 0.016 | [2] 0.072 | [3] -0.082 | duvelisib 0.02 | gandotinib 0.018 | tozasertib 0.028 | [4] 0 | doramapimod -0.001 | ispinesib -0.054

Following part:

STRAP isoform 2 (UniProt Q9Y3F4)
inactive: [1] -0.005 | crizotinib 0.052 | [2] 0.042 | [3] 0.036 | duvelisib 0.006 | gandotinib -0.01 | tozasertib -0.013 | [4] -0.021 | doramapimod 0.014 | ispinesib 0.003

SYAP1 (UniProt Q96A49)
inactive: [1] 0.028 | crizotinib -0.037 | [2] 0.04 | [3] -0.059 | duvelisib 0.039 | gandotinib -0.093 | tozasertib 0.017 | [4] -0.005 | doramapimod 0.031 | ispinesib -0.003

SUDS3 (UniProt Q9H7L9)
inactive: [1] 0.064 | crizotinib 0.032 | [2] 0.562 | [3] -0.035 | duvelisib 0.289 | tozasertib 0.017 | [4] -0.12 | doramapimod -0.035 | ispinesib -0.186

SUCLG2 (UniProt Q96I99)
inactive: [1] -0.002 | crizotinib -0.014 | [2] 0.134 | [3] -0.067 | duvelisib 0.02 | gandotinib -0.046 | tozasertib -0.024 | [4] -0.005 | doramapimod -0.009 | ispinesib -0.022

STX8 (UniProt Q9UNK0)
inactive: [1] -0.039 | crizotinib -0.117 | [2] 0.057 | [3] 0.008 | duvelisib 0.007 | gandotinib 0.033 | tozasertib -0.012 | [4] -0.025 | doramapimod 0.056 | ispinesib -0.224

SZRD1 (UniProt Q7Z422)
inactive: [1] 0.036 | crizotinib -0.005 | [2] 0.089 | [3] -0.057 | duvelisib 0.07 | gandotinib 0.037 | tozasertib -0.049 | [4] -0.095 | doramapimod -0.009 | ispinesib 0.079

STRBP (UniProt Q96SI9)
inactive: [1] -0.127 | crizotinib -0.062 | [2] -0.059 | [3] 0.273 | duvelisib -0.082 | tozasertib 0.02 | [4] 0.036 | doramapimod 0.009 | ispinesib -0.052

TATDN2 (UniProt Q93075)
inactive: [1] 0.002 | crizotinib -0.061 | [2] 0.028 | [3] 0.078 | gandotinib 0.106 | [4] 0.045 | doramapimod 0.063

STX16 isoform 2 (UniProt O14662)
inactive: [1] 0.029 | crizotinib -0.052 | [2] 0.006 | [3] 0.04 | duvelisib 0.057 | gandotinib -0.02 | tozasertib -0.09 | [4] 0.021 | doramapimod -0.102 | ispinesib -0.055

TARDBP (UniProt Q13148)
inactive: [1] 0.036 | crizotinib -0.069 | [2] -0.051 | [3] 0.298 | gandotinib -0.051 | tozasertib 0.073 | doramapimod 0.049 | ispinesib -0.099

SVIP (UniProt Q8NHG7)
inactive: [1] 0 | crizotinib 0.116 | [2] 0.174 | [3] -0.035 | gandotinib 0.055 | tozasertib -0.042 | doramapimod 0.03 | ispinesib 0.145

SYVN1 (UniProt Q86TM6)
inactive: [1] -0.029 | crizotinib 0.053 | [2] 0.125 | [3] -0.083 | duvelisib 0.052 | gandotinib 0.01 | tozasertib -0.011 | [4] -0.023 | doramapimod 0.032 | ispinesib -0.037

TATDN3 isoform 3 (UniProt Q17R31)
inactive: [1] -0.001 | crizotinib 0.014 | [2] 0.05 | [3] 0.131 | duvelisib -0.022 | gandotinib -0.088 | tozasertib -0.06 | [4] -0.02 | doramapimod 0.008 | ispinesib 0.011
